Reference: PubChem BioAssay AID1671190 (National Center for Advancing Translational Sciences (NCATS), 2021)
Several values for one entry are separate records, joined by “and”; a condition that tells them apart may be missing. Equal values may be shown once. Screen size: about 580,000 compounds; about 6,100 (1.1%) were called active. Inconclusive means that the source gave no clear call. Such entries were picked first, then a sample of the others. The call rests on the fitted dose curve; in most records, active means well fitted inhibition curve with a large enough effect; inconclusive means small, poorly fitted or top-dose-only effect, or another doubt; inactive means no such curve, though single readings can be large or run the other way. Potencies beside an inconclusive call are fits to weak or partial responses and may not hold up.

Protein sequences, listed by entry. Tags and fused reporters are not part of them. Lines headed by an entry give the natural chain unless they say otherwise; changes in a name come on top.
UniProt P18054: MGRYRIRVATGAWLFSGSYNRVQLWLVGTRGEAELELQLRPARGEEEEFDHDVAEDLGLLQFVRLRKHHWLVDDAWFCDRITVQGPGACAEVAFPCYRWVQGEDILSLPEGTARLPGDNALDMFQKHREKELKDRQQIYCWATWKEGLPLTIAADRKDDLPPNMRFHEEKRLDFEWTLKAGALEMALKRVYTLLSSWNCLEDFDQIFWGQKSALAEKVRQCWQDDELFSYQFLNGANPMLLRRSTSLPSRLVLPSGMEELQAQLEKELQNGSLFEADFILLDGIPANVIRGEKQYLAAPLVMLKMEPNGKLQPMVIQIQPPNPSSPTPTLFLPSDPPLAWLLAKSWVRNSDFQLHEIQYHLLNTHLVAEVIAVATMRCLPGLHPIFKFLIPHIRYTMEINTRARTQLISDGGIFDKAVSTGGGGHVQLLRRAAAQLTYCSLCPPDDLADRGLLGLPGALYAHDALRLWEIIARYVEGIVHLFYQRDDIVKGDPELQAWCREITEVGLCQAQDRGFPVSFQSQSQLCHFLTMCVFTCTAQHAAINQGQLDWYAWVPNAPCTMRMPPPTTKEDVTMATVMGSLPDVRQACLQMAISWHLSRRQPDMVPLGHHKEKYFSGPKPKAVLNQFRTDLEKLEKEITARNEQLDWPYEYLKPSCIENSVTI

Target: Polyunsaturated fatty acid lipoxygenase ALOX12 (Homo sapiens) (UniProt P18054)
Assay: Primary qHTS assay for inhibitors of human arachidonate 12S-lipoxygenase (ALOX12): Round 2
Conditions: purified 12hLO, xylenol orange hydroperoxide absorbance; activity change, negative = inhibition: at 108 µM (top of the series) unless noted
Outline: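 Purified human 12hLO (150 nM final) in 25 mM Hepes, 0.01% Triton X-100, pH 7.0 was preincubated 15 min at room temperature with compound. Then 40 uM arachidonic acid was added, 30 min. Hydroperoxide was read by Fe-XO absorbance ratio 573/405 nm.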
On the % scale 0 is the no-effect control and ±100 the full control effect; potency means the concentration at half of the fitted maximal effect.

| SMILES | Potency | activity change, negative = inhibition |
| --- | --- | --- |
| Cc1ccc(CN2C(=O)N/C(=C/c3ccc(-c4ccc(C(=O)O)cc4)o3)C2=O)cc1 | inconclusive: 50.1 µM [inhibitor, partial curve, poor fit] | – |
| O=C(CSc1ccc2c(c1)OCCO2)NCc1ccccc1 | – | inactive: -1.54% |
| CCCCOc1cccc(C(=O)NC(=S)Nc2cccc(C(F)(F)F)c2)c1 | active: 31.6 µM | – |
| CCC(C)NC(=O)CN1C(=O)N(c2cccc(SC)c2)S(=O)(=O)c2ccccc21 (stereo unspecified) | – | inactive: -24.7% |
| Cc1cccc(NC(=O)CN2C(=O)S/C(=C\c3cccn3-c3cccc(C(=O)O)c3)C2=O)c1 | inconclusive: 39.8 µM [inhibitor, partial curve, poor fit] | – |
| O=C(c1ccc(CS(=O)c2cccc(Cl)c2)o1)N1CCN(c2ccccn2)CC1 (stereo unspecified) | – | inactive: 0.531% |
| COc1ccc2c(c1)C(C)=CC(C)(C)N2C(=O)Nc1cccc(Cl)c1 | active: 39.8 µM | – |
| Cc1ccc(-c2nc3c4ccccc4ccn3c2CN2CCCCC2)cc1 | inconclusive: 28.2 µM [inhibitor, partial curve] | – |
| Cc1cc(C(=O)NCC2CCCO2)sc1C (stereo unspecified) | – | inactive: -2.52% |
| COc1ccc(NC(=O)Cn2c(=O)n(CCCC(=O)NCc3ccccc3Cl)c(=O)c3ccccc32)c(OC)c1 | inconclusive: 112 µM [inhibitor, partial curve, poor fit] | – |
| COC(=O)c1ccc2nc(-c3ccco3)c(Cc3ccccc3C(F)(F)F)n2c1 | inconclusive: 1.58 µM [inhibitor, full curve, poor fit] | – |
| CCCC(C)NS(=O)(=O)c1ccccc1 (stereo unspecified) | – | inactive: -7.95% |
| COc1ccc(-c2csc(-n3cccn3)n2)cc1 | inconclusive: 89.1 µM [inhibitor, single point] | – |
| CCCCc1ccc(-n2nnnc2SCC(=O)Nc2cccc(OC)c2)cc1 | – | inactive: -4.52% |
| N/C(=N\OC(=O)CCn1cccc(C(F)(F)F)c1=O)c1ccc(Cl)cc1 | inconclusive: 112 µM [inhibitor, single point] | – |
| COc1ccc(Cl)cc1-c1ccc2c(c1)C(=O)N1CC[C@H](NC(=O)C3CCCC3)C[C@H]1C(=O)N2 | inconclusive: 39.8 µM [inhibitor, single point] | – |
| Cc1ccc(OCCNC(=O)[C@H]2O[C@@H](n3cnc4c(N)ncnc43)[C@H](O)[C@@H]2O)cc1C | – | inactive: -3.74% |
| CC(C)(C)c1ccc(C(=O)NCCNC(=O)c2nc3ccccc3c(=O)[nH]2)cc1 | inconclusive: 126 µM [inhibitor, single point] | – |
| CCc1c(C)sc(NC(=O)c2ccc(Cl)cc2)c1C#N | – | inactive: -65.3% |
| COCC1(C(=O)N2CCc3c(c(C(=O)O)nn3CC3CC3)C2)CCC1 | – | inactive: 4.87% |
| CCCCNC(=O)C1(c2ccc(NC(=O)C(C)C)cc2)CCCCC1 | – | inactive: -9.46% |
| CO/C([O-])=N/c1c[n+](-c2ccc(C)cc2)no1 | inconclusive: 15.8 µM [inhibitor, partial curve, poor fit] | – |

| SMILES | Potency | activity change, negative = inhibition |
| --- | --- | --- |
| O=C1CO[C@H]2CN(Cc3c[nH]c4ccccc34)C[C@H]2N1Cc1ccc(F)cc1 | inconclusive: 70.8 µM [inhibitor, partial curve, poor fit] | – |
| Cc1noc(C)c1CN[C@@H]1C[C@H](CO)[C@@H](O)[C@H]1O | inconclusive: 89.1 µM [inhibitor, single point] | – |
| CCCCC(=O)Nc1nc(C)c(-c2csc(Nc3cc(Cl)ccc3OC)n2)s1 | – | inactive: -13.5% |
| Cc1cc(=O)n2[nH]c(CCC(=O)O)nc2n1 | – | inactive: -7.88% |
| CC1CC1c1ccc(/C=C/C(=O)N(Cc2ccccc2)C2CC2)o1 (stereo unspecified) | active: 8.91 µM | – |
| O=C(O)c1nn(-c2ccccc2)ccc1=O | inconclusive: 50.1 µM [inhibitor, partial curve, poor fit] | – |
| COCCn1c(=O)cnc2cnc(N(C)C)nc21 | inconclusive: 22.4 µM [inhibitor, partial curve, poor fit] | – |
| CC(=O)Nc1ccc(C2=CC(=O)C[C@H](c3ccc4c(c3)OCO4)C2)cc1 | inconclusive: 89.1 µM [inhibitor, partial curve, poor fit] | – |
| CCc1cccc2c(C(=O)CN3C(=O)CC4(CCCC4)C3=O)c[nH]c12 | inconclusive: 112 µM [inhibitor, single point] | – |
| O=C(CN1CCN(c2ncccn2)CC1)NCCC1=CCCCC1 | inconclusive: 0.501 µM [inhibitor, full curve, poor fit] | – |
| O=C(O)c1cc(-c2cccs2)nc2cc3c(cc12)OCCO3 | inconclusive: 28.2 µM [inhibitor, partial curve, poor fit] | – |
| CC(C)NC(=O)NC[C@H]1O[C@@H](CO)[C@@H](O)[C@H]1N(C)CCc1ccccn1 | inconclusive: 25.1 µM [inhibitor, single point] | – |
| CCc1ccc(NC(=O)Cn2c(=O)c3cccn3c3ccccc32)cc1 | inactive and inconclusive: 89.1 µM [inhibitor, single point] and inconclusive: 4.47 µM [inhibitor, full curve, poor fit] | – |
| Cc1nn2c(c1-c1ccnn1C(C)C)N(Cc1ccc(C(=O)O)s1)CCC2 | active: 28.2 µM | – |
| CCOc1cccc(CNC2CC2)c1 | – | inconclusive: -34% [inhibitor] |
| CCC(=O)N(C)C(c1ccc(C)cc1)c1c[nH]c2ccccc12 (stereo unspecified) | inconclusive: 79.4 µM [inhibitor, partial curve, poor fit] | – |
| COc1ccc(-c2nc(-n3c(C)c(C(C)=O)c(C(C)=O)c3C)sc2C)cc1OC | – | inactive: -15.3% |
| O=C(Nc1nc(-c2ccc(Cl)s2)cs1)c1ccc(F)cc1 | inconclusive: 20 µM [inhibitor, partial curve, poor fit] | – |
| O=C(Nc1nc2c(s1)CCCC2)C1CC(=O)N(c2n[nH]c3ccccc23)C1 (stereo unspecified) | inconclusive: 50.1 µM [inhibitor, partial curve] | – |
| Cc1cnc(CNc2cc(-c3ccc4c(c3)OCO4)ncn2)cn1 | inconclusive: 5.01 µM [inhibitor, full curve, poor fit] | – |
| CC(=O)Nc1cccc(-c2nnc(SCC(=O)n3c4c(c5ccccc53)CCCC4)n2C)c1 | inconclusive: 22.4 µM [inhibitor, partial curve, poor fit] | – |
| CCN(CC)C1CCN(C(=O)c2cc(COc3ccccc3SC)on2)C1 (stereo unspecified) | inconclusive: 3.16 µM [inhibitor, full curve, poor fit] | – |

| SMILES | Potency | activity change, negative = inhibition |
| --- | --- | --- |
| CC(C)Nc1nc(NCCN2CCCC2)c2sc(-c3ccccc3)cc2n1 | inconclusive: 25.1 µM [inhibitor, partial curve, poor fit] | – |
| CN(C)C(=S)c1ccccc1 | inconclusive: 50.1 µM [inhibitor, partial curve, poor fit] | – |
| CCCC[C@@H]1C[C@H]1[C@@H](NC(=O)c1ccco1)c1ccc(C(=O)OC)cc1 | inconclusive: 44.7 µM [inhibitor, partial curve, poor fit] | – |
| O=C1CC(c2ccccc2)n2nc(NC(=O)c3cccs3)nc2N1 (stereo unspecified) | inconclusive: 25.1 µM [inhibitor, single point] | – |
| COc1ccc(Nc2ccccc2NC(=O)c2cccc(F)c2)cc1 | inconclusive: 35.5 µM [inhibitor, partial curve] | – |
| COC(=O)CNC(=O)N1CCC(N2C(=O)C3(CCCC3)C2c2scnc2C)CC1 (stereo unspecified) | – | inactive: 29.3% |
| CC(C)c1ccc2oc(-c3ccc(Cl)c(NC(=O)c4cccnc4)c3)nc2c1 | – | inactive: -10.9% |
| Cc1cc(Cl)ccc1NC(=O)CSc1nc2cc([N+](=O)[O-])ccc2o1 | inconclusive: 31.6 µM [inhibitor, partial curve, poor fit] | – |
| O=C(c1ccccc1)N1CN2CN(C(=O)c3ccccc3)CC([N+](=O)[O-])(C2)C1 | inconclusive: 12.6 µM [inhibitor, full curve, poor fit] | – |
| CCOC(=O)c1ccoc1CSCc1ccc(C(=O)OC)o1 | inconclusive: 50.1 µM [inhibitor, partial curve, poor fit] | – |
| COCCn1c(-c2ccc(Cl)cc2Cl)n[nH]c1=S | inconclusive: 39.8 µM [inhibitor, partial curve, poor fit] | – |
| O=C(NC(=S)NCC1CCCO1)c1ccco1 (stereo unspecified) | inconclusive: 44.7 µM [inhibitor, partial curve, poor fit] | – |
| COc1ccc(OC)c(NC(=O)CSc2nnnn2C2CCCC2)c1 | inconclusive: 2.51 µM [inhibitor, full curve, poor fit] | – |
| CC(C)N(Cc1cn(C)nc1-c1cccc(Cl)c1)Cc1nccn1C | – | inactive: -33.2% |
| Cc1cc(NC(=O)Nc2ccc3c(ccn3C)c2)sn1 | inactive | – |
| O=C(COC(=O)CNS(=O)(=O)c1ccc(Br)cc1Cl)NCCc1ccccc1 | inconclusive: 44.7 µM [inhibitor, partial curve, poor fit] | – |
| CCCCSc1nc2c(cnn2-c2ccc(C)c(C)c2)c(=O)[nH]1 | inconclusive: 0.398 µM [inhibitor, full curve, poor fit] | – |
| Cc1ccccc1S(=O)(=O)NC(=O)C1(C)CCN1C(=O)c1cccc(F)c1 (stereo unspecified) | inconclusive: 79.4 µM [inhibitor, partial curve, poor fit] | – |
| O=S(=O)(Nc1ccc2c(c1)OCCO2)c1ccc2oc3ccccc3c2c1 | – | inactive: -5.12% |
| O=C(O)C1c2ccccc2Cc2ccccc21 | inconclusive: 39.8 µM [inhibitor, partial curve, poor fit] | – |
| Cc1ccc(C)c(-n2c(Cc3cc(=O)[nH]c(=O)[nH]3)nnc2SCC(=O)NCc2ccco2)c1 | inconclusive: 11.2 µM [inhibitor, full curve, poor fit] | – |
| CC(CCc1ccccc1)NC(=O)Cc1cccc2ccccc12 (stereo unspecified) | – | inactive: 1.12% |

Quoted from the results shown for reference:

| SMILES | Potency | activity change, negative = inhibition |
| --- | --- | --- |
| CCOC(=O)c1ccoc1CSCc1ccc(C(=O)OC)o1 | inconclusive: 50.1 µM [inhibitor, partial curve, poor fit] | – |
| COCCn1c(-c2ccc(Cl)cc2Cl)n[nH]c1=S | inconclusive: 39.8 µM [inhibitor, partial curve, poor fit] | – |
| O=C(NC(=S)NCC1CCCO1)c1ccco1 (stereo unspecified) | inconclusive: 44.7 µM [inhibitor, partial curve, poor fit] | – |
| COc1ccc(OC)c(NC(=O)CSc2nnnn2C2CCCC2)c1 | inconclusive: 2.51 µM [inhibitor, full curve, poor fit] | – |
